The target of assay [1] is human TREM2 ectodomain D87N (human) (UniProt Q9NZC2). The assay is described as follows: non-reducing SDS-PAGE; purified AD risk variant ectodomains prepared with and without beta-mercaptoethanol; both purified.
Assay [2] shares this target. Put plainly: SEC; analytical gel filtration (Superdex 200 10/300 GL) of the purified ectodomain, monomer fraction concentrated and re-run; 20 mM Tris pH 8.5, 150 mM NaCl; both purified. A general note: SEC sorts molecules by how far they enter the pores of the column.
The target in assay [3] is human TREM2 ectodomain N68K (human) (UniProt Q9NZC2). Put plainly: non-reducing SDS-PAGE; purified AD risk variant ectodomains prepared with and without beta-mercaptoethanol; both purified.
Assay [4] has the same target. Put plainly: SEC; analytical gel filtration (Superdex 200 10/300 GL) of the purified ectodomain, monomer fraction concentrated and re-run; 20 mM Tris pH 8.5, 150 mM NaCl; both purified.
Assay [5] deals with human TREM2 ectodomain R47H (human) (UniProt Q9NZC2). The assay is described as follows: non-reducing SDS-PAGE; purified AD risk variant ectodomains prepared with and without beta-mercaptoethanol; both purified.
Assay [6] shares this target. Put plainly: SEC; analytical gel filtration (Superdex 200 10/300 GL) of the purified ectodomain, monomer fraction concentrated and re-run; 20 mM Tris pH 8.5, 150 mM NaCl; both purified.
Assay [7] deals with human TREM2 ectodomain T96K (human) (UniProt Q9NZC2). Put plainly: non-reducing SDS-PAGE; purified AD risk variant ectodomains prepared with and without beta-mercaptoethanol; both purified.
Assay [8] shares this target. The assay is described as follows: SEC; analytical gel filtration (Superdex 200 10/300 GL) of the purified ectodomain, monomer fraction concentrated and re-run; 20 mM Tris pH 8.5, 150 mM NaCl; both purified.
The target of assay [9] is human TREM2 ectodomain R62H (human) (UniProt Q9NZC2). The assay is described as follows: non-reducing SDS-PAGE; purified AD risk variant ectodomains prepared with and without beta-mercaptoethanol; both purified.
Assay [10] shares this target. Put plainly: SEC; analytical gel filtration (Superdex 200 10/300 GL) of the purified ectodomain, monomer fraction concentrated and re-run; 20 mM Tris pH 8.5, 150 mM NaCl; both purified.

No constants are given. Whether binding was seen depends on the method and setting.

B1: human TREM2 ectodomain D87N (domain or fragment, UniProt Q9NZC2 19-134)
chain: HNTTVFQGVAGQSLQVSCPYDSMKHWGRRKAWCRQLGEKGPCQRVVSTHNLWLLSFLRRWNGSTAITDNTLGGTLTITLRNLQPHDAGLYQCQSLHGSEADTLRKVLVEVLADPLD
Consider B1, for which the binding entry in assay [1] and in assay [2] was “no binding” throughout.

B2: human TREM2 ectodomain N68K (domain or fragment, UniProt Q9NZC2 19-134)
chain: HNTTVFQGVAGQSLQVSCPYDSMKHWGRRKAWCRQLGEKGPCQRVVSTHKLWLLSFLRRWNGSTAITDDTLGGTLTITLRNLQPHDAGLYQCQSLHGSEADTLRKVLVEVLADPLD
Turning to B2, the binding entry in assay [3] and in assay [4] was “no binding” in each case.

B3: human TREM2 ectodomain R47H (domain or fragment, UniProt Q9NZC2 19-134)
chain: HNTTVFQGVAGQSLQVSCPYDSMKHWGRHKAWCRQLGEKGPCQRVVSTHNLWLLSFLRRWNGSTAITDDTLGGTLTITLRNLQPHDAGLYQCQSLHGSEADTLRKVLVEVLADPLD
Consider B3, for which the binding entry in assay [5] and in assay [6] was “no binding” in each case.

B4: human TREM2 ectodomain T96K (domain or fragment, UniProt Q9NZC2 19-134)
chain: HNTTVFQGVAGQSLQVSCPYDSMKHWGRRKAWCRQLGEKGPCQRVVSTHNLWLLSFLRRWNGSTAITDDTLGGTLTIKLRNLQPHDAGLYQCQSLHGSEADTLRKVLVEVLADPLD
As for B4, the binding result in assay [7] and in assay [8] was “no binding” in each case.

B5: human TREM2 ectodomain R62H (domain or fragment, UniProt Q9NZC2 19-134)
chain: HNTTVFQGVAGQSLQVSCPYDSMKHWGRRKAWCRQLGEKGPCQHVVSTHNLWLLSFLRRWNGSTAITDDTLGGTLTITLRNLQPHDAGLYQCQSLHGSEADTLRKVLVEVLADPLD
Turning to B5, the binding entry in assay [9] and in assay [10] was “no binding” each time.

Source of the values: PMC5173322, “Neurodegenerative disease mutations in TREM2 reveal a functional surface and distinct loss-of-function mechanisms” (eLife, 2016).
